Laboratory results taken from publication doi:10.1101/2025.11.14.688579.
No constants are given. Whether binding was seen depends on the method and setting. Some binding calls cover weakened binding; strength is not graded here.

Chains of the proteins cited; added tags and fusions are not shown.
UniProt O35129: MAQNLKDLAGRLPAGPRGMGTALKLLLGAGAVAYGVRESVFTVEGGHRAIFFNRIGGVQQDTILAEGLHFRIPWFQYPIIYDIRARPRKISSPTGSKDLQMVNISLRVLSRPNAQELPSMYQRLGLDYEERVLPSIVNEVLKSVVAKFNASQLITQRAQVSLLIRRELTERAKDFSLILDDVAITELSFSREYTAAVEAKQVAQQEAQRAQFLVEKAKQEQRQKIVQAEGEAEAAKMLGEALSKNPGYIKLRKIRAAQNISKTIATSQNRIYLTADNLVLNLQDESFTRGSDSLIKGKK

Molecular target: prohibitin-2 (mouse (endogenous in MEF)) (UniProt O35129)
Assay: cryo-EM structure

binding: binds
B1: prohibitin-1 (protein, UniProt P67778 1-272)
chain: MAAKVFESIGKFGLALAVAGGVVNSALYNVDAGHRAVIFDRFRGVQDIVVGEGTHFLIPWVQKPIIFDCRSRPRNVPVITGSKDLQNVNITLRILFRPVASQLPRIYTSIGEDYDERVLPSITTEILKSVVARFDAGELITQRELVSRQVSDDLTERAATFGLILDDVSLTHLTFGKEFTEAVEAKQVAQQEAERARFVVEKAEQQKKAAIISAEGDSKAAELIANSLATAGDGLIELRKLEAAEDIAYQLSRSRNITYLPAGQSVLLQLPQ
